These are yes or no findings as the source states them, for the method shown. In cells and extracts the contact can be indirect. A yes stands for co-enrichment or nearness to the bait. Other partners may have been found.

Binding data for one molecule are collected here from article PMC8376253.

The target of this experiment is T1, endogenous mouse Naa15 (liver) (mouse (endogenous in liver)) (UniProt Q80UM3).
T1 sequence: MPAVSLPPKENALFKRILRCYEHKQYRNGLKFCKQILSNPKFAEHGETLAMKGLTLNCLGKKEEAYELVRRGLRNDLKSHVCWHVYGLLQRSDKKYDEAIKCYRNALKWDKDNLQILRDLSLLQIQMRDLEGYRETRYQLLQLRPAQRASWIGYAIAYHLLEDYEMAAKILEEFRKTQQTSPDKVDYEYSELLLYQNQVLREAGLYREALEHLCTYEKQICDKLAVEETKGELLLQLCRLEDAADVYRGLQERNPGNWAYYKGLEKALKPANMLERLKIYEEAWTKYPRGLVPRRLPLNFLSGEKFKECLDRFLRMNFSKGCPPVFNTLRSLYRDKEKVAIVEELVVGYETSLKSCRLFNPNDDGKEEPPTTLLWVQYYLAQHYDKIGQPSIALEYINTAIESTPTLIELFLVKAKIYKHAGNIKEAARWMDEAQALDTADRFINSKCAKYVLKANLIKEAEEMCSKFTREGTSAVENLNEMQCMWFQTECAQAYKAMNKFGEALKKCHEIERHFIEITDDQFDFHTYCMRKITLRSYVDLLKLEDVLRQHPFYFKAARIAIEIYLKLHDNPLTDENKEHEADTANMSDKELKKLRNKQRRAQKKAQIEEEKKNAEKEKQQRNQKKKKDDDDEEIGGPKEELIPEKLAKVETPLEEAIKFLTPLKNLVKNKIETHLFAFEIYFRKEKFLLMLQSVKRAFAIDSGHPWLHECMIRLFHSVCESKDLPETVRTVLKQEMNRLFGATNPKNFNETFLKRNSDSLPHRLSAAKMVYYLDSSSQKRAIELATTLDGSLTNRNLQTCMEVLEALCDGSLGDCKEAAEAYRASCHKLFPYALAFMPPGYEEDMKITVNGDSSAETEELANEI
Kind of experiment: affinity purification with mass spectrometry; liver lysate of a WT and a Naa10 KO mouse in IPH lysis buffer; anti-Naa15 antibody (anti-V5 as control), Protein A/G magnetic beads; LC-MS/MS, label-free quantification.

B1: endogenous mouse Naa12 (liver) (protein, UniProt Q9CQX6 1-220)
chain: MNIRRARPDDLMNMQHCNLLCLPENYQMKYYFYHGLSWPQLSYIAEDEDGKIVGYVLAKMEEDPDDVPHGHITSLAVKRSHRRLGLAQKLMDQASRAMIENFSAKYVSLHVRKSNRAALHLYSNTLNFQVSEVEPKYYADGEDAYAMKRDLSQMADELRRQLVLKKGRYVVLGSKENQGSTLPGSEEASQQENLAGGDSGSDGKDSTDVQDSLQTLGSAS
Consider B1, for which the binding entry is reported as “binds”.
